# Measured values taken from PubChem BioAssay AID504444 (National Center for Advancing Translational Sciences (NCATS), 2011).
# Among all 360,000 compounds or so, about 7,500 (2.1%) were called active. Inconclusive means that the source gave no clear call. Such entries were picked first, then a sample of the others. Calls come from the whole dose curve; as a rule, active = well fitted inhibition curve with a large enough effect; inconclusive = small, poorly fitted or top-dose-only effect, or effect the other way; inactive = flat fitted curve, though single readings scatter. A potency beside an inconclusive call is a rough fit, not a confirmed value.
# Test: Nrf2 qHTS screen for inhibitors; note: nearly all actives have a fitted effect of over 60% in size
# Settings: A549 ARE-Fluc reporter, luciferase luminescence, 18-24 h; series mostly up to 46 µM
# Summary of the method: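 Cells were seeded and rested 2 h, then exposed to compounds for 18-24 h. CellTiter-Fluor was read first as a viability measure. BugLite was added 15 min before the final luminescent read of ARE-luciferase activity in A549 cells.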
# Potency is the fitted concentration of half-maximal effect.
row,Compound,Potency
1,COc1ccc(NC(=O)c2nc(SC)ncc2Cl)cc1,"inconclusive: 2.06 µM [falling, partial curve, poor fit]"
2,Cc1ccc(C)c(C(=O)c2ccccc2NC(=O)c2ccccn2)c1,inactive
3,Cc1nn(C)c(C)c1NC(=O)CSc1nc(C2CC2)nc2c1cnn2-c1ccccc1,"inconclusive: 8.2 µM [falling, partial curve, poor fit]"
4,COCCn1c(=O)[nH]c(=O)c2cc(C(=O)c3cc(Cl)ccc3O)cnc21,inactive
5,COc1ccccc1Nc1c2c(nc3ccc(NC(=O)c4cccc(F)c4)cc13)CCCC2,"inconclusive: 25.9 µM [falling, single point]"
6,Cc1cc(C)c(NC(=O)CSc2ncc(S(=O)(=O)c3ccc(C(C)(C)C)cc3)c(=O)[nH]2)c(C)c1,inactive
7,COc1ccc(CCNC(=O)Cn2cc(S(=O)(=O)Cc3cccc(Cl)c3)c3ccccc32)cc1OC,active: 20.6 µM
8,COc1ccc(-c2noc(CSc3nnc(-c4ccc(Cl)cc4)n3C)n2)cc1OC,inactive
9,Cc1ccc(C(C)C)c(OC/C(O)=C(\C#N)c2nc3ccccc3[nH]2)c1,"inconclusive: 18.4 µM [falling, single point]"
10,CC(C)CCNC(=O)C1CCCCN1S(=O)(=O)c1ccc(F)cc1 (centres undefined),"inconclusive: 32.6 µM [falling, partial curve, poor fit]"
11,COc1ccc(OC)c(N(CC(=O)NC2CCCCCC2)S(=O)(=O)c2ccc(C)cc2)c1,"inconclusive: 32.6 µM [falling, single point]"
12,O=c1c2ccccc2oc2cc(NCCCn3ccnc3)ccc12,"inconclusive: 2.91 µM [activator, full curve]"
13,Cc1cc(C(=O)N/N=C/c2cccc(Cl)c2Cl)no1,"inconclusive: 29.1 µM [activator, partial curve, poor fit]"
14,O=C(NC1CCCCC1)C(c1ccccc1)N(Cc1ccco1)C(=O)c1csnn1 (centres undefined),inactive
15,CCOC(=O)c1cnc2c(C(F)(F)F)cccc2c1Nc1cccc(C(=O)OC)c1,"inconclusive: 32.6 µM [falling, single point]"
16,Nc1ccc(C(=O)OCC(=O)N2CCc3ccccc3C2)cc1[N+](=O)[O-],inactive
17,COc1ccc(C(C(=O)Nc2ccc(C(C)C)cc2)N(Cc2ccco2)C(=O)CC2NC(=O)NC2=O)cc1 (centres undefined),inactive
18,Cc1ccc(NC(=O)c2ccc3c(=O)n4c(nc3c2)CCCCC4)nc1,inactive
19,O=C(c1cc(-c2ccccc2)on1)N1CCN(Cc2ccc3c(c2)OCO3)CC1,"inconclusive: 25.9 µM [falling, single point]"
20,COc1ccc(-n2c(O)c(/C=N/Nc3nc(C)cc(C)n3)c3ccccc3c2=O)cc1OC,"inconclusive: 29.1 µM [falling, single point]"
21,CN1CCN(C(=O)Nc2cccc(Cl)c2)c2cccnc21,inactive
22,COc1cccc(C(=O)Nc2ccc(NC(=O)c3ccc(C(C)(C)C)cc3)cc2)c1,"inconclusive: 0.13 µM [falling, full curve, poor fit]"

row,Compound,Potency
1,Cc1ccc(NC(=O)C(C)c2cccc(C(=O)c3ccccc3)c2)cc1O (centres undefined),inactive
2,Cc1cc(C)c2nc(NC(=O)c3ccc([N+](=O)[O-])o3)sc2c1,inactive
3,COc1cccc2c1Oc1ncccc1N(c1ccc(C(=O)NCc3cccc(C)c3)s1)C2,"inconclusive: 2.91 µM [falling, partial curve, poor fit]"
4,COC(=O)c1ccc(NC(=O)C2C3C=CC(O3)C2C(=O)O)cc1 (centres undefined),"inconclusive: 14.6 µM [activator, partial curve, poor fit]"
5,Cc1ccc(S(=O)(=O)N2CCN(C(=O)CSC3CCCC3)CC2)c(C)c1,active: 25.9 µM
6,CC1(C(=O)Nc2ncc(Cc3ccc(Br)cc3)s2)Cc2ccccc2C(=O)O1 (centres undefined),"inconclusive: 18.4 µM [falling, single point]"
7,O=S(=O)(Nc1ccccc1)c1ccc(Oc2ncc(C(F)(F)F)cc2Cl)cc1,"inconclusive: 29.1 µM [falling, single point]"
8,Cc1cnc(NC(=O)CSc2nnc(COc3ccccc3)o2)s1,inactive
9,C/C(CCc1ccccc1)=N/NC(=O)C(=O)NCc1ccccc1,"inconclusive: 6.51 µM [falling, single point]"
10,O=C(c1cc(-c2cccnc2)nc2ccc(Br)cc12)N1CCN(c2ncccn2)CC1,inactive
11,COc1ccc(OCCn2c(=O)sc3ccccc32)cc1,"inconclusive: 16.4 µM [activator, single point]"
12,Cc1ccc(NC(=O)CC2CCCC2)c(Br)c1,"inconclusive: 9.2 µM [activator, partial curve]"
13,O=[N+]([O-])c1cccc2cn[nH]c12,"inconclusive: 0.164 µM [falling, full curve, poor fit]"
14,CCN(CCn1cccn1)C(=O)c1cc(COc2cc(C)ccc2C)on1,"inconclusive: 4.61 µM [activator, partial curve]"
15,O=C(N=Nc1c(O)[nH]c2ccccc12)c1ccc2c(c1)OCO2,"inconclusive: 0.82 µM [activator, partial curve]"
16,O=C(NCCCN1CCCC1)c1cc(Sc2ccc(F)cc2)nc2ccccc12,"inconclusive: 3.26 µM [activator, single point]"
17,Cc1ccc(Cl)cc1N1CCN(Cc2nc3ccsc3c(=O)[nH]2)CC1,"inconclusive: 3.26 µM [falling, partial curve]"
18,COc1cc(OC)c(NC(=O)c2c3c(nn2C)-c2ccccc2SC3)cc1Cl,"inconclusive: 18.4 µM [falling, single point]"
19,CN(C(=O)c1cccc(NC(=O)Cc2ccc([N+](=O)[O-])cc2)c1)C1CCCC1,active: 23.1 µM
20,Cc1ccc2nc(Cl)c3cc(C(=O)N(CCN(C)C)Cc4ccco4)sc3c2c1,inactive
21,COc1ccccc1OCC(O)CN1CCN(CC(=O)Nc2c(C)cccc2C)CC1 (centres undefined),"inconclusive: 20.6 µM [falling, partial curve, poor fit]"
22,O=[N+]([O-])c1ccc(/C=C/c2nc3ccc([N+](=O)[O-])cc3[nH]2)cc1,"inconclusive: 14.6 µM [falling, single point]"

# 2 of these compounds in a different format.
row	Compound	Potency
4	COC(=O)c1ccc(NC(=O)C2C3C=CC(O3)C2C(=O)O)cc1 (centres undefined)	inconclusive: 14.6 µM [activator, partial curve, poor fit]
17	Cc1ccc(Cl)cc1N1CCN(Cc2nc3ccsc3c(=O)[nH]2)CC1	inconclusive: 3.26 µM [falling, partial curve]
